# The list shows a part of the results.
# B1: Epa19 (Candida glabrata) (protein)
# chain: MGSSHHHHHHSSGLVPRGSHMASSKDPTRFPIGCSPQVLKTQPGLAVKLYSYGHPVPGCSYITYQYPDFPRSGYKKERKLADITGVNGKIDIDLKPNDPCRVLTGHLPSNYNYPDTLTYTNFTMILYGYFQPKVTGYHTFNLEADDLLFMNLGAGNAFDCCKAESTLDNFGNYQSYSLWGSDYAKANITVFLVSGVYYPIRLFYVNRDNNAVIDFSFTTEFDKEKVHDFTSYFFSASDGEQCPGSV
# Legend:
# Test in all cases: glycan array binding signal (z-score within array); higher = stronger binding
# Conditions in all cases: glycan notation: IUPAC condensed, linker removed
# [1] = target: Gal(b1-3)GalNAc(b1-3)Gal
# How it was run: (§1)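 Arrays were curated from the Consortium for Functional Glycomics database, 3228 in total, and kept only where the protein sequence was available. Binding is expressed as a within-array Z-score. This score was averaged across arrays of the same protein sequence at different concentrations or buffers and across linkers, and negative values can be read as non-binding.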
# [2] = target: Gal(b1-3)GalNAc(b1-3)Gal(a1-4)Gal(b1-4)Glc
# How it was run: as §1
# [3] = target: Gal(b1-3)GalNAc(b1-4)Gal(b1-4)Glc
# How it was run: as §1
# [4] = target: Gal(b1-3)GalNAc(b1-4)[Neu5Ac(a2-3)]Gal(b1-4)Glc
# How it was run: as §1
# [5] = target: Gal(b1-3)GlcNAc
# How it was run: as §1
# [6] = target: Gal(b1-3)GlcNAc(a1-3)Gal(b1-4)GlcNAc
# How it was run: as §1
# [7] = target: Gal(b1-3)GlcNAc(a1-6)Gal(b1-4)GlcNAc
# How it was run: as §1
# [8] = target: Gal(b1-3)GlcNAc(b1-2)Man
# How it was run: as §1
# [9] = target: Gal(b1-3)GlcNAc(b1-2)Man(a1-3)[Gal(b1-3)GlcNAc(b1-2)Man(a1-6)]Man(b1-4)GlcNAc(b1-4)GlcNAc
# How it was run: as §1
# [10] = target: Gal(b1-3)GlcNAc(b1-2)Man(a1-3)[Gal(b1-3)GlcNAc(b1-2)Man(a1-6)]Man(b1-4)GlcNAc(b1-4)[Fuc(a1-6)]GlcNAc
# How it was run: as §1
# [11] = target: Gal(b1-3)GlcNAc(b1-2)Man(a1-3)[GlcNAc(b1-4)][Gal(b1-3)GlcNAc(b1-2)Man(a1-6)]Man(b1-4)GlcNAc(b1-4)GlcNAc
# How it was run: as §1
# [12] = target: Gal(b1-3)GlcNAc(b1-2)[Gal(b1-3)GlcNAc(b1-6)]Man(a1-6)[Gal(b1-3)GlcNAc(b1-2)Man(a1-3)]Man(b1-4)GlcNAc(b1-4)GlcNAc
# How it was run: as §1
# [13] = target: Gal(b1-3)GlcNAc(b1-3)Gal(b1-3)GlcNAc
# How it was run: as §1
# [14] = target: Gal(b1-3)GlcNAc(b1-3)Gal(b1-4)Glc
# How it was run: as §1
# [15] = target: Gal(b1-3)GlcNAc(b1-3)Gal(b1-4)GlcNAc
# How it was run: as §1
# [16] = target: Gal(b1-3)GlcNAc(b1-3)Gal(b1-4)GlcNAc(b1-2)Man(a1-3)[Gal(b1-3)GlcNAc(b1-3)Gal(b1-4)GlcNAc(b1-2)Man(a1-6)]Man(b1-4)GlcNAc(b1-4)GlcNAc
# How it was run: as §1
# [17] = target: Gal(b1-3)GlcNAc(b1-3)Gal(b1-4)GlcNAc(b1-2)[Gal(b1-3)GlcNAc(b1-3)Gal(b1-4)GlcNAc(b1-6)]Man(a1-6)[Gal(b1-3)GlcNAc(b1-3)Gal(b1-4)GlcNAc(b1-2)Man(a1-3)]Man(b1-4)GlcNAc(b1-4)[Fuc(a1-6)]GlcNAc
# How it was run: as §1
# [18] = target: Gal(b1-3)GlcNAc(b1-3)Gal(b1-4)GlcNAc(b1-3)Gal(b1-4)GlcNAc(b1-2)[Gal(b1-3)GlcNAc(b1-3)Gal(b1-4)GlcNAc(b1-3)Gal(b1-4)GlcNAc(b1-6)]Man(a1-6)[Gal(b1-3)GlcNAc(b1-3)Gal(b1-4)GlcNAc(b1-3)Gal(b1-4)GlcNAc(b1-2)Man(a1-3)]Man(b1-4)GlcNAc(b1-4)[Fuc(a1-6)]GlcNAc
# How it was run: as §1
# [19] = target: Gal(b1-3)GlcNAc(b1-3)Gal(b1-4)GlcNAc(b1-6)[Gal(b1-3)GlcNAc(b1-3)]Gal(b1-4)Glc
# How it was run: as §1
# [20] = target: Gal(b1-3)GlcNAc(b1-3)Gal(b1-4)[Fuc(a1-3)]GlcNAc
# How it was run: as §1
# [21] = target: Gal(b1-3)GlcNAc(b1-3)Gal(b1-4)[Fuc(a1-3)]GlcNAc(b1-6)[Gal(b1-3)GlcNAc(b1-3)]Gal(b1-4)Glc
# How it was run: as §1
# [22] = target: Gal(b1-3)GlcNAc(b1-3)GalNAc
# How it was run: as §1
# [23] = target: Gal(b1-3)GlcNAc(b1-6)Gal(b1-4)GlcNAc
# How it was run: as §1
# [24] = target: Gal(b1-3)GlcNAc(b1-6)GalNAc
# How it was run: as §1
# [25] = target: Gal(b1-3)GlcNAc(b1-6)[Gal(b1-3)]GalNAc
# How it was run: as §1
# [26] = target: Gal(b1-3)GlcNAc6S
# How it was run: as §1
# [27] = target: Gal(b1-3)[Fuc(a1-4)]GlcNAc
# How it was run: as §1
# [28] = target: Gal(b1-3)[Fuc(a1-4)]GlcNAc(b1-2)Man
# How it was run: as §1
# [29] = target: Gal(b1-3)[Fuc(a1-4)]GlcNAc(b1-2)Man(a1-3)[Gal(b1-3)[Fuc(a1-4)]GlcNAc(b1-2)Man(a1-6)]Man(b1-4)GlcNAc(b1-4)[Fuc(a1-6)]GlcNAc
# How it was run: as §1
# [30] = target: Gal(b1-3)[Fuc(a1-4)]GlcNAc(b1-3)Gal(b1-3)[Fuc(a1-4)]GlcNAc
# How it was run: as §1
# [31] = target: Gal(b1-3)[Fuc(a1-4)]GlcNAc(b1-3)Gal(b1-4)[Fuc(a1-3)]GlcNAc
# How it was run: as §1
# [32] = target: Gal(b1-3)[Fuc(a1-4)]GlcNAc(b1-6)GalNAc
# How it was run: as §1
# [33] = target: Gal(b1-3)[GlcNAc(b1-6)]GalNAc
# How it was run: as §1
# [34] = target: Gal(b1-3)[Neu5Ac(a2-6)]GalNAc
# How it was run: as §1
# [35] = target: Gal(b1-3)[Neu5Ac(a2-6)]GlcNAc(b1-4)Gal(b1-4)Glc
# How it was run: as §1
# [36] = target: Gal(b1-3)[Neu5Ac(b2-6)]GalNAc
# How it was run: as §1
# [37] = target: Gal(b1-4)Gal
# How it was run: as §1
# [38] = target: Gal(b1-4)GalNAc(a1-3)[Fuc(a1-2)]Gal(b1-4)GlcNAc
# How it was run: as §1
binder,measurement,setting,value
B1,glycan array binding signal (z-score),[1],-0.043
same,glycan array binding signal (z-score),[2],0.604
same,glycan array binding signal (z-score),[3],0.316
same,glycan array binding signal (z-score),[4],-0.041
same,glycan array binding signal (z-score),[5],-0.342
same,glycan array binding signal (z-score),[6],0.488
same,glycan array binding signal (z-score),[7],-0.414
same,glycan array binding signal (z-score),[8],0.566
same,glycan array binding signal (z-score),[9],-0.15
same,glycan array binding signal (z-score),[10],-0.254
same,glycan array binding signal (z-score),[11],-0.063
same,glycan array binding signal (z-score),[12],0.35
same,glycan array binding signal (z-score),[13],0.436
same,glycan array binding signal (z-score),[14],-0.323
same,glycan array binding signal (z-score),[15],-0.724
same,glycan array binding signal (z-score),[16],0.847
same,glycan array binding signal (z-score),[17],0.881
same,glycan array binding signal (z-score),[18],0.249
same,glycan array binding signal (z-score),[19],0.06
same,glycan array binding signal (z-score),[20],0.997
same,glycan array binding signal (z-score),[21],-0.418
same,glycan array binding signal (z-score),[22],-0.204
same,glycan array binding signal (z-score),[23],-0.034
same,glycan array binding signal (z-score),[24],0.208
same,glycan array binding signal (z-score),[25],-0.211
same,glycan array binding signal (z-score),[26],0.058
same,glycan array binding signal (z-score),[27],-0.613
same,glycan array binding signal (z-score),[28],0.424
same,glycan array binding signal (z-score),[29],-0.356
same,glycan array binding signal (z-score),[30],-0.659
same,glycan array binding signal (z-score),[31],-0.553
same,glycan array binding signal (z-score),[32],1.69
same,glycan array binding signal (z-score),[33],-0.054
same,glycan array binding signal (z-score),[34],-0.344
same,glycan array binding signal (z-score),[35],-0.363
same,glycan array binding signal (z-score),[36],2.39
same,glycan array binding signal (z-score),[37],0.068
same,glycan array binding signal (z-score),[38],-0.193

# Reprinted at random: two records from the list
binder,measurement,setting,value
B1,glycan array binding signal (z-score),[36],2.39
same,glycan array binding signal (z-score),[32],1.69

# From the supplement of paper PMC8728848
